This note sets out measurements from article doi:10.1101/2021.02.12.430913.

The chains behind the UniProt entries cited, without tags or fusion partners. Where a name states a change or a piece, a line headed by the entry shows the natural chain unless it says otherwise.
UniProt Q562E2: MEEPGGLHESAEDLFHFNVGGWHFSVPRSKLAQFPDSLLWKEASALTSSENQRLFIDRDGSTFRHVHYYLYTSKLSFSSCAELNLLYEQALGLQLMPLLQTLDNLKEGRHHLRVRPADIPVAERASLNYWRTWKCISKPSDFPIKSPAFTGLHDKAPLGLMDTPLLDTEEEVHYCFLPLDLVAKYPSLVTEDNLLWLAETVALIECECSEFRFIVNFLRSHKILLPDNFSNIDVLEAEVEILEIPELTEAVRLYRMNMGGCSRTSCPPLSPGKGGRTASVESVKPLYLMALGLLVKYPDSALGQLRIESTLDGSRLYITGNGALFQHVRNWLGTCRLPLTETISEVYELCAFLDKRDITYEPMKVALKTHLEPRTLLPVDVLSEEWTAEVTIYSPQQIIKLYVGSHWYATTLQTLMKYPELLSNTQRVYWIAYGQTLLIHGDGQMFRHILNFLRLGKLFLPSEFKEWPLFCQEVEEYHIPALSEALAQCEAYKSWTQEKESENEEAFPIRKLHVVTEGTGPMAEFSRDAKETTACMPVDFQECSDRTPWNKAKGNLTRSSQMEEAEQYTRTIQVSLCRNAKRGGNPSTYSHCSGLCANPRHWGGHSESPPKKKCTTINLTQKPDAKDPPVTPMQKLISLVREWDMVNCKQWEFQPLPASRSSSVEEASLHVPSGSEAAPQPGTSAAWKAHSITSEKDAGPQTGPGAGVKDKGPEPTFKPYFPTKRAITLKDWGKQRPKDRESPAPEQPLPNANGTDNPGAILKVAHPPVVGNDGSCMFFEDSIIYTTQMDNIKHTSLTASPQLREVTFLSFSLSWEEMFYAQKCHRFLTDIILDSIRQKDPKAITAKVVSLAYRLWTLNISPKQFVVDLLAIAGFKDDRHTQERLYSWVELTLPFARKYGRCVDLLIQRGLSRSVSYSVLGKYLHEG
UniProt Q80TT8: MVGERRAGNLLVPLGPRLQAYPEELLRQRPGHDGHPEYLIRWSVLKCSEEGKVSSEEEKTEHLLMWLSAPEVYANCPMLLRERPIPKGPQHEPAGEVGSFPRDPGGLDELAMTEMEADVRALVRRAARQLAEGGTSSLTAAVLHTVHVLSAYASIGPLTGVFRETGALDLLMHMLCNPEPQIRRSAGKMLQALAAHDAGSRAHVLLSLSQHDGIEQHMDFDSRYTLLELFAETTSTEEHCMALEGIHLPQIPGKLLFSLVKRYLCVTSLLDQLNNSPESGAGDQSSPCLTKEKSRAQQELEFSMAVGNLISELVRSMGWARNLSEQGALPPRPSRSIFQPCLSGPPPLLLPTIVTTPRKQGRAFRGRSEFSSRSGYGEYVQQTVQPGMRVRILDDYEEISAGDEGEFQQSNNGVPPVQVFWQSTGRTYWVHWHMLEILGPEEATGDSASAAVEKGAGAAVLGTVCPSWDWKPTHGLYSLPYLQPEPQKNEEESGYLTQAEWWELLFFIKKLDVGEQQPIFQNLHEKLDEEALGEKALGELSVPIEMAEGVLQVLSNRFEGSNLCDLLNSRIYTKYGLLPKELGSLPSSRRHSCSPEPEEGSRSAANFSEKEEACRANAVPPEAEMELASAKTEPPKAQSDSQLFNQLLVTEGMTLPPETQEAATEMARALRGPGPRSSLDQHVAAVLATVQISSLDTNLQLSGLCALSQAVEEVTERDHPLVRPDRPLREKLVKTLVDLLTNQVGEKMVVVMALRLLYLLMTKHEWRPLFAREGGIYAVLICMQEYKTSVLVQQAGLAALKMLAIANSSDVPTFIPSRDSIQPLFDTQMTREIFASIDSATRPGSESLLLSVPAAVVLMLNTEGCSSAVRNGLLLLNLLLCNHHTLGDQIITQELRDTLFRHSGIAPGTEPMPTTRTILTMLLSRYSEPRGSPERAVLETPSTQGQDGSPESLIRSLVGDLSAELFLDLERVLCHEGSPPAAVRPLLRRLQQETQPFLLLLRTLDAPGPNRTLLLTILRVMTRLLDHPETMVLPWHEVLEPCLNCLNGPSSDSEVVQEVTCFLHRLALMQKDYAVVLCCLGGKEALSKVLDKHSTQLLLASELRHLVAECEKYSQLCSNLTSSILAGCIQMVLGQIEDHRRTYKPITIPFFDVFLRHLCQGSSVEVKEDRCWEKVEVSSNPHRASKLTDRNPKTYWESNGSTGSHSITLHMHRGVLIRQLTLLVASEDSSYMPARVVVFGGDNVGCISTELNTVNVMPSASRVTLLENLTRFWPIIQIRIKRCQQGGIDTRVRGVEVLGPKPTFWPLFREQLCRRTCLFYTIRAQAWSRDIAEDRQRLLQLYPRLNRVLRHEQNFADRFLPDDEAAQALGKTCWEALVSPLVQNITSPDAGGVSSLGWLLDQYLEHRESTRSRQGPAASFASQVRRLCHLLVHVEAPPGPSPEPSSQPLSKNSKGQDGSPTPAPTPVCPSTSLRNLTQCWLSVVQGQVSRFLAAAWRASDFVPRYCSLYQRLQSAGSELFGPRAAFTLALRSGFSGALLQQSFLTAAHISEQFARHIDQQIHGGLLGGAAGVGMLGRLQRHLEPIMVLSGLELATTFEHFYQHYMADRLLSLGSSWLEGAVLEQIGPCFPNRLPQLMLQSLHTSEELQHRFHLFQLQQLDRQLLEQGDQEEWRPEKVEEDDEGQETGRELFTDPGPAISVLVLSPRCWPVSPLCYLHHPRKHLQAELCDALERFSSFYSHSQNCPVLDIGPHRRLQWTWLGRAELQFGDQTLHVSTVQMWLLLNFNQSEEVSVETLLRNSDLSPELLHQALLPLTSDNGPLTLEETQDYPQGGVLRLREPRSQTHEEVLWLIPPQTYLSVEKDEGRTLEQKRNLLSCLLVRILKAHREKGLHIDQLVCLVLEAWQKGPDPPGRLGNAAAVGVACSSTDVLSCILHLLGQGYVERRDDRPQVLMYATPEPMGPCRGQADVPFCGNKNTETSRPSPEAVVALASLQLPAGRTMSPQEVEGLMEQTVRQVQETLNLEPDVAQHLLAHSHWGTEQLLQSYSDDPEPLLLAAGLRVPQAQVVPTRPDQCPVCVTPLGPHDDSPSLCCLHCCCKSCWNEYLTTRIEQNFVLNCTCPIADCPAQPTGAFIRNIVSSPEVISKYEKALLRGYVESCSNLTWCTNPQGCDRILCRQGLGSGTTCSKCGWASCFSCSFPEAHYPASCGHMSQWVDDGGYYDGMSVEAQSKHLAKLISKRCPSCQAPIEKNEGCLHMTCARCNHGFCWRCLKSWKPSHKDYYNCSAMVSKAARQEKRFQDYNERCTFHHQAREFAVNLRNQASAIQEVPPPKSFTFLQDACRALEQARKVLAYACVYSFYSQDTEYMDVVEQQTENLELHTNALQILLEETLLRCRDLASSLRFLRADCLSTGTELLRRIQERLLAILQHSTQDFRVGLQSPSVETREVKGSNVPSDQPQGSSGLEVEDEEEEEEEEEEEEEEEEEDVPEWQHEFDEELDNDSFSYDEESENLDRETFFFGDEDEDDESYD
UniProt O09106: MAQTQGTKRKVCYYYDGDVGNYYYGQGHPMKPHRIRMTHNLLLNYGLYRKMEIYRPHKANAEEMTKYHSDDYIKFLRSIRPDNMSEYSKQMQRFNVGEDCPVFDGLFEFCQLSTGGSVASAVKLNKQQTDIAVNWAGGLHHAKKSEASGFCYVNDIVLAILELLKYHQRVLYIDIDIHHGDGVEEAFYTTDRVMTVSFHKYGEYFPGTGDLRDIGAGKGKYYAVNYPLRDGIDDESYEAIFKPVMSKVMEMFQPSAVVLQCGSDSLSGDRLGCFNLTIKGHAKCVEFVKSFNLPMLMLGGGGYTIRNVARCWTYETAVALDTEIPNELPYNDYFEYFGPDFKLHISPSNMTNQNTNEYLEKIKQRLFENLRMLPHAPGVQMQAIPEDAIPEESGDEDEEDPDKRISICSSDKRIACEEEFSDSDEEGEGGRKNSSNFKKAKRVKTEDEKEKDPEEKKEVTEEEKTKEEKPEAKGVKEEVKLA

The target of the assay is potassium channel tetramerization domain containing 19 (KCTD19) (mouse (endogenous in testis)) (UniProt Q562E2). The experiment in a line: affinity purification with mass spectrometry.

Results are given in words; binding and its absence hold for the method and conditions named. In cells and extracts the contact can be indirect. Here binding means that the protein was enriched with, or labelled near, the bait; the list need not be complete.

As to CUL9 (from UniProt Q80TT8 1-2530), the binding result is reported as “binds”.

Take “histone deacetylase 1 (HDAC1) (from UniProt O09106 1-482)”: the binding result was “binds”.

B1: zinc finger protein 541 (ZFP541) (protein, UniProt Q0GGX2-1 1-1363)
chain: MEPYSLGEEGALPSEGHLPSFSESQVLNCSDTLNRDLGPSTRDLLYAGLSGLDLDPSLSTSDMPSEVLEDNLDTLSLYSGKDSDSVKLLEEYADSESQTSLQDLGLGALKVPKEADEGGRATGSTRKGKRQHSSPQNPLLDCSLCGKVFSSASSLSKHYLTHSQERKHVCKVCSKAFKRQDHLTGHMLTHQKTKPFVCIEQGCSKSYCDYRSLRRHYEVQHGVCILKETPPEEEAYGDPTHNHDVANQPPPSGLRSLGPPEARSPGSVLPNRDLLRCIVSSIVHQKIPSPGPAVGPSDTEARSSACACPTSLGSSSCTPASTPVALGTLGSEIPEETHPPRKEAATEVFTPVQSRAAENGVPDPPESELESESPRLQRPSSLEGWPEGSSLPACLPLFRGHSVPSGSQPSSHNFQWLRNLPGCPKNKGSNVFMVHKPPAVASREGSEGGGSGPSSTPTSVEPSPSLGTTQEELLPFPPALLKAPGEASSEVRQAAGEDETWAPKKCKPDCESFPWQSPTELGLQDAQNPGGLPSDATPLFRQLFMKSQESLVSHEQMQVLQMIAKSQRIFSHTQVATASAQRPGPEGKQSTLKPLQGPWPPQTLPPAPTVDSFQIGPGHSEPEGSPVRRRKTMPAVSRETSPGGPRRDTKGGPKVASAPPSLTGPGLLPSRNPDSSSLAKGTLDLGDIIPNAGSRQSQLGGDEPAGTQLVGKQGQGENGLASGAMRGEKGPACPRGGGYRLFSGHPRAQRFSGFRKEKVKMDVCCAASPSQVAMASFSSAGPLADPPRDMKSKLTIFNRIQGGNIYRLPHPVKEESLAGGCHQPNGGPTDWMESKSTFVCKNCSQMFYTEKGLSSHMCFHSDQWPSPRGKQEQQVKGQMVASVKRKAGREEGAVEDMKRHYDCSSSEPQDVTILSMLVSSGSCGVTPVVLSSLLQGQEKDGEERDSKESCQYRKRKKRPQPKALFAPPAPSALGEPGPGGCHQSCLHSPVFLVDHLLKGLFQCSPYTPPPMLSPIREGSGLYFNTLCSTSRAGPHLISPVLDQVDSSFGICVVKDDTKISIEPHINVGSRFQAEIPELQERLLARVDENVASLVWKPWGDVMTNPETQDRVMELCNVACSSVMPGGGTNLELALHCLHDAQGSVQVALETLLLRGPQKPRTHPLADYRYTGSDIWTPMEKRLFKKAFCAHKKDFYLIHKMIQTKSVAQCVEYYYIWKKMVKFDCGRAPGLEKRGRRELDEVERTEDKVTCSPRERPTHRPTPELKIKTKSYRRESILHSSPSAAPKRTPEPPGSVESQGVFPCRECERVFDKIKSRNAHMKRHRLQEHVEPVRVKWPVKPYPLKEEEEEEEEELGADMGPLQW
For B1, the binding entry was “binds”.

B2: DNTTIP1 (protein, UniProt Q99LB0 1-328)
chain: MGATGDTEQPRGPGGAERGGLELGDAGAAGQPVLTNPWNIMIKHRQVQRRGRRSQMTTSFTDPAISMDLLRAVLQPSINEEIQGVFNKYMKFFQKAALNVRDNVGEEVDAEQLIQEACRSCLEQAKLLFSDGEKVIPRLAHELPGIKRGRQAEEESHRGSPIPKKRKGRPPGHVLSNDRAAAGMVWKQKSCEPIRREGPKWDPARLNESTTFVLGSRANKALGMGGTRGRIYIKHPHLFKYAADPQDKHWLAEQHHMRATGGKMAYLLIEEDIRDLAASDDYRGCLDLKLEELKSFVLPSWMVEKMRKYMETLRTENEHRAAEAPPQT
As to B2, the binding entry is “binds”.
